In PMC7819943, “Rice protein-binding microarrays: a tool to detect cis-acting elements near promoter regions in rice” one finds binding signal data, which are given here for 42 sequences.

This is one part of the list.

The target in this experiment is T1, OsSMF1 (Oryza sativa, UniProt Q6ZLB0 1-436).
T1 sequence: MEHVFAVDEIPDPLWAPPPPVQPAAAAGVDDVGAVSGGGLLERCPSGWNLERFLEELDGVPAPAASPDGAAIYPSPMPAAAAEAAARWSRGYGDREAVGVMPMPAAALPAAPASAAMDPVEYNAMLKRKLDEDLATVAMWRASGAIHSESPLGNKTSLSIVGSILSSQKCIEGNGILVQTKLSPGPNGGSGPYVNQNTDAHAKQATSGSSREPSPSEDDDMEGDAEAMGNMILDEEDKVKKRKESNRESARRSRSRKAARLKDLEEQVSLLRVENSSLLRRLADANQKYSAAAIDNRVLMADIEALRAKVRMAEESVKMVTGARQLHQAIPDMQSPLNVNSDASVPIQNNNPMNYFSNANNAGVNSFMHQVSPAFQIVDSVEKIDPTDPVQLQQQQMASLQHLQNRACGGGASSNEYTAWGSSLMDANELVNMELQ
The experiment in a line: protein-binding microarray (RPBM); PBS, 2% BSA, 51.3 ng/ul salmon testes DNA, 50 uM zinc acetate, 200 nM TF, 25 C, 1 h; high values mean tight binding. Particulars: protein: recombinant; tags: N-terminal polyhistidine and DsRed monomer fusion (pET32a); chain copies: 2; label: CyDye5-dUTP incorporated in the synthesized complementary strand; 3' TTTTT single-stranded linker to array surface; dsDNA, one strand shown. A digest of the protocol: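 The binding signal for each feature is its fluorescence intensity in arbitrary units. An Axon 4000B scanner was used to read a custom Agilent array that had been made double-stranded with Cy5-dUTP primer extension, blocked with 2% BSA, incubated at 25 °C for 1 h with 200 nM protein in PBS, 2% BSA, salmon testes DNA and 50 µM zinc acetate, and washed. The protein was an N-terminal polyhistidine–DsRed transcription factor fusion from E. coli BL21-CodonPlus, purified on Ni–NTA.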
In the case of “AGCAACCAAATCTTCCCAATTCTCACTTGCTCCTAGATACCGGAGTCACCTAGTGCAG”, the binding signal was 3840 fluorescence intensity (a.u.).

For “CATCAAAATTTTCCTACACACACAACGTTCCAATTTTAATCGGAGTCACCTAGTGCAG”, the binding signal is 37400 fluorescence intensity (a.u.).

Consider “GACATCAATGACACTGGCGCCGACACCCTCAACCCCTCGTCGGAGTCACCTAGTGCAG”, for which the binding signal was 4060 fluorescence intensity (a.u.).

Consider “GTTTTACATATTACAGTAGTGGGCGAGATGCTGTTGCAATCGGAGTCACCTAGTGCAG”, for which the binding signal was 26700 fluorescence intensity (a.u.).

In the case of “GGCAATGGCTGATATGGGAAGGTAGGGGAGAAGGGTATAGCGGAGTCACCTAGTGCAG”, the binding signal is 3400 fluorescence intensity (a.u.).

For “ACGCGTGCCGAATGCCGTGGCGCGACGCGACGCGCCCAATCGGAGTCACCTAGTGCAG”, the binding signal is 3390 fluorescence intensity (a.u.).

Consider “AAACAGCTATTGCCGTCATATGTGCCACTTGCTCTCGTGGCGGAGTCACCTAGTGCAG”, for which the binding signal is 5420 fluorescence intensity (a.u.).

As for “TACATTTCTTTGACAAAACTTTTATAACCAGCTGATGTGGCGGAGTCACCTAGTGCAG”, the binding signal was 11400 fluorescence intensity (a.u.).

Turning to “TGTGGGGTGGCGATGAAGGTTGGCATCGCTGTCGTGGCTGCGGAGTCACCTAGTGCAG”, the binding signal was 5190 fluorescence intensity (a.u.).

Regarding “ACCAAAATGAACTGGCCTGTCGTTTGCACCAGTGTATGTCCGGAGTCACCTAGTGCAG”, the binding signal is 3340 fluorescence intensity (a.u.).

As for “CGGTGGGAGTGGGATAAAGGGACGTGGGGCGAGGTAGACCCGGAGTCACCTAGTGCAG”, the binding signal is 3320 fluorescence intensity (a.u.).

Turning to “ACTACCATTACAAGCACTGACGTGTGGAACAATAGGAGTACGGAGTCACCTAGTGCAG”, the binding signal was 4820 fluorescence intensity (a.u.).

Take “ATATAACCCGCTGCTCTTCTCTCTCATCTTTTATCTTATTCGGAGTCACCTAGTGCAG”: the binding signal is 21400 fluorescence intensity (a.u.).

As for “TTTGAGGGACCGAAAGAGAACTTATTCCCCGTGTAGCGCGCGGAGTCACCTAGTGCAG”, the binding signal is 3290 fluorescence intensity (a.u.).

Consider “AGAACCGAAGGCGGTGGGCCCCACCCCGTCAGCCTCTCTCCGGAGTCACCTAGTGCAG”, for which the binding signal was 3560 fluorescence intensity (a.u.).

Take “GCCAAACTTCTTCCTTTACCAACTTCATGACGTGCCATATCGGAGTCACCTAGTGCAG”: the binding signal is 11000 fluorescence intensity (a.u.).

Consider “TTGTTATTACACATTGATGAGACATCAAACTATGCTGACTCGGAGTCACCTAGTGCAG”, for which the binding signal is 5220 fluorescence intensity (a.u.).

On to “ATGGCGTGTCAGATTTGCTAGCGTGATGTGCATTGATTACCGGAGTCACCTAGTGCAG”, for which the binding signal is 3480 fluorescence intensity (a.u.).

“GACGACGGCGTGACGATGCAGATGTTCGAGGAGTGGATGGCGGAGTCACCTAGTGCAG”: the binding signal is 3350 fluorescence intensity (a.u.).

“CAACTTCTAAAGCTAAATTTAGGAGTAGGAGTTTTACCAACGGAGTCACCTAGTGCAG”: the binding signal is 4490 fluorescence intensity (a.u.).

As for “AGTTATCCTGTTCCCACGTAATGCTGTTATGTAGATTTTCCGGAGTCACCTAGTGCAG”, the binding signal is 5590 fluorescence intensity (a.u.).

As to “CCATACAATGCCGCTGTACTTCATTAAGCCTCGTGAAAACCGGAGTCACCTAGTGCAG”, the binding signal was 3530 fluorescence intensity (a.u.).

As to “GCAACCTACCTAAACAATGTTATGTATGTGGCTCCAGCAGCGGAGTCACCTAGTGCAG”, the binding signal is 3180 fluorescence intensity (a.u.).

Turning to “TGCGGAATAAAATAAATATATGATGCATCATGATTATAGCCGGAGTCACCTAGTGCAG”, the binding signal was 3730 fluorescence intensity (a.u.).

For “CTTGTCAGCGTACGGACCCTGACGTTAACAAACGATCGCGCGGAGTCACCTAGTGCAG”, the binding signal was 3560 fluorescence intensity (a.u.).

As to “CGACATCATCAAGAGTAAGCCACGTACCGCCACTCTCTCGCGGAGTCACCTAGTGCAG”, the binding signal was 3340 fluorescence intensity (a.u.).

As to “GTAGAACTAGACGACCTCCGTAGTATAGCACGAATCTCAACGGAGTCACCTAGTGCAG”, the binding signal was 4150 fluorescence intensity (a.u.).

Turning to “TGGCTCGCAAAATGCCACATAATTGGCTCTGGAAACCGAGCGGAGTCACCTAGTGCAG”, the binding signal was 3450 fluorescence intensity (a.u.).

Consider “CTTCCCCGGCAGCGCTCCCGCCGCCACGTTGCCACTGTTGCGGAGTCACCTAGTGCAG”, for which the binding signal was 9560 fluorescence intensity (a.u.).

As for “CCGACGAGTGGTGTTTTCTGGTCACCTGCGGCAGCCGTCGCGGAGTCACCTAGTGCAG”, the binding signal is 3380 fluorescence intensity (a.u.).

For the sequence “TGGGGCCCACGCTGACTCACCCGCCACGTCAGACAAAACCCGGAGTCACCTAGTGCAG”, the binding signal is 20900 fluorescence intensity (a.u.).

On to “AACTTGTCTTCTGCTTATGTCAGCATTATAGGCCTATAGGCGGAGTCACCTAGTGCAG”, for which the binding signal was 12200 fluorescence intensity (a.u.).

As for “AGTCCACTCTTCACAGCAGGGCGAGAAGAGAAGTAGGAGTCGGAGTCACCTAGTGCAG”, the binding signal was 3160 fluorescence intensity (a.u.).

As to “CTGAATCCCGCCCGGTGTTTGAGTGCCTTCGCCTATGCTGCGGAGTCACCTAGTGCAG”, the binding signal was 3230 fluorescence intensity (a.u.).

As to “CGCCGAGGAAGCGGCGGCGAACAACGCTCGGACCGCGTCACGGAGTCACCTAGTGCAG”, the binding signal was 3620 fluorescence intensity (a.u.).

For the sequence “AGAGATGGTAGTGGTAAAGCGGAGGAGGGGTGGGGTGTTGCGGAGTCACCTAGTGCAG”, the binding signal is 3760 fluorescence intensity (a.u.).

As for “TTGCTGTTCTTCCAATCCACTCCTCTTGTTTGTGGCAAAGCGGAGTCACCTAGTGCAG”, the binding signal was 21100 fluorescence intensity (a.u.).

“CAATATATGCGTTACCGAGCAGCCACGTCTCATGAACACACGGAGTCACCTAGTGCAG”: the binding signal is 3760 fluorescence intensity (a.u.).

With “CTGAGAATAGGACGATGACCCGTCGCTCTGGGAACTAGCCCGGAGTCACCTAGTGCAG”, the binding signal is 3300 fluorescence intensity (a.u.).

With “GCTCTGCATGAGTTTCGCGCACACGCACGCATCGATCGGCCGGAGTCACCTAGTGCAG”, the binding signal is 3630 fluorescence intensity (a.u.).

“CGTGCAGCCGTTGACATGTGGTCCATGCTATTCGCAAATGCGGAGTCACCTAGTGCAG”: the binding signal is 3270 fluorescence intensity (a.u.).

“CCGAGCGCTGGCCGCTGACGCGTCCCCGCGTCCCGACCGTCGGAGTCACCTAGTGCAG”: the binding signal was 9400 fluorescence intensity (a.u.).
